# Data as given in patent publication US20210364534A1 (THE BOARD OF TRUSTEES OF THE UNIVERSITY OF ILLINOIS, priority 2018, published 2021).
# Assay: general procedure: Fmoc solid-phase peptide synthesis
# Details: whole synthesis, TFA salt
substance,measurement,value
DS(PO3)HEKRHHGYRRKFHEKHHSHREFPFYGDYGSNYLYDN (DSHEKRHHGYRRKFHEKHHSHREFPFYGDYGSNYLYDN; phosphorylated serine; MOD_RES (2)..(2) PHOSPHORYLATION),final purity (method not given),>95%
